Assays:
[1] = test system: polymorphonuclear cells in O. ochengi nodules; test: Nodular polymorphonuclear cell counts per high-power field; assay type: in vivo, zebu (Ngaoundéré Gudali) cattle; details: MRSM, 4 mg/kg every other day for 3 days; for Nodular PMN counts per high-power field, mixed-effects coefficient vs pre-treatment (day 1): SE 81.56
[2] = test system: eosinophils in O. ochengi nodules; test: Nodular eosinophils as percentage of polymorphonuclear cells; assay type: in vivo, zebu (Ngaoundéré Gudali) cattle; details: MRSM, 4 mg/kg every other day for 3 days

What does the source list for NCCS[As](SCCN)c1ccc(Nc2nc(N)nc(N)n2)cc1 [melarsomine]?
Nodular PMN counts per high-power field, mixed-effects coefficient (SE) vs placebo ([1]; day 90): −31.96 (37.23); Nodular PMN counts per high-power field, mixed-effects coefficient vs pre-treatment (day 1) ([1]; day 90): −89.76; Nodular PMN counts per high-power field, mixed-effects coefficient (SE) vs placebo ([1]; day 180): −2.50 (90.62); Nodular PMN counts per high-power field, mixed-effects coefficient vs pre-treatment (day 1) ([1]; day 180): −17.19; Nodular PMN counts per high-power field, mixed-effects coefficient (SE) vs placebo ([1]; day 290): −98.33 (93.14); Nodular PMN counts per high-power field, mixed-effects coefficient vs pre-treatment (day 1) ([1]; day 290): −114.19; Nodular eosinophils as % of total PMN, mixed-effects coefficient (SE) vs placebo ([2]; day 90): –1.40 (13.34); Nodular eosinophils as % of total PMN, mixed-effects coefficient (SE) vs placebo ([2]; day 180): –41.88 (19.04); Nodular eosinophils as % of total PMN, mixed-effects coefficient (SE) vs placebo ([2]; day 290): –8.47 (13.17)
